Measured values taken from patent publication US20250264459A1, “IN VITRO ASSAY TO PREDICT CARDIOTOXICITY” (Stemina Biomarker Discovery, Inc., priority 2018, published 2025).

System: human iPSC-CM (iCell Cardiomyocytes)
Assay: Dose-response cell viability (CellTiter-Fluor) in iPSC-derived cardiomyocytes, maximum acceptable viability exposure
Format: cell-based
Method: Metabolomic data was acquired to identify non-cytotoxic exposure levels and identify biomarkers of cardiotoxicity from a dose-response experiment using spent medium of iPSC-CM treated with 53 of the compounds in the training set. Briefly, human iPSC-CM (iCell® Cardiomyocytes, cat #R1007, Cellular Dynamics International) were exposed to eight concentrations of each training set compound. Spent media was collected for LC-MS analysis and cell viability was assessed with the CellTiter-Fluor Cell Viability Assay (Promega). Spent media samples were prepared and analyzed using the methods developed in Specific Aim 1. The spent media samples from iPSC-CM treated with 10 representative cardiotoxic and non-cardiotoxic compounds were analyzed with all four LC-MS methods to rank biological significant secretome features by predictive capacity. […]
The goal of the concentration-response phase of biomarker identification was to identify non-cytotoxic exposure levels that change iPSC-CM metabolism. The method included modeling feature response, calculating maximum acceptable viability (MAVE), determining response at Cmax, and MAVE, reviewing the top 4 responding features, and selecting the highest tested exposure with 90% viability.

COC(=O)C1=C(C)NC(C)=C(C(=O)OC)C1c1ccccc1[N+](=O)[O-] [Nifedipine]
MAVE (Maximum Acceptable Viability Exposure): 100 µM
